The source of these data is the supplement of paper PMC9877034.

Where a name gives a salt, the structure may show the parent alone. In all, about 1,000 compounds were measured (“cFRET/donor change relative to DMSO, normalised to beta-lapachone positive control (supercomplex I-IV assembly)”: median about 0.18, lowest 2% from about -1 on). The list shows a part of the results.

The experiment has as its system C2C12 (NDUFB8-AcGFP / COX8A-DsRed-Monomer FRET reporter). Briefly: cFRET/donor change relative to DMSO, normalised to beta-lapachone positive control (supercomplex I-IV assembly) (fraction of beta-lapachone effect); higher = more respiratory supercomplex assembly. As to conditions: 40 µM; 24 h. The method, then:
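Cells were treated with 40 uM compound for 24 h and imaged on an IN Cell Analyzer 6000. Corrected FRET was divided by donor signal (cFRET/donor) and measured in two replicate experiments. The score is (mean cFRET/donor of compound - mean DMSO) / (mean beta-lapachone 40 uM - mean DMSO). Compounds flagged for prominent cell death, abnormal morphology or decreased cell number were excluded.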
In turn, `Cc1ccc(S(=O)(=O)N[C@@H](Cc2ccccc2)C(=O)CCl)cc1` [N-p-Tosyl-L-phenylalanine chloromethyl ketone] had a cFRET/donor change of 0.262.
Consider `CC(C)NCC(O)COc1ccc(CCOCC2CC2)cc1` (stereo unspecified) [Betaxolol hydrochloride], for which the cFRET/donor change was 0.18.
In turn, `C[N+](C)(C)CC=O` [Betaine aldehyde chloride] displayed a cFRET/donor change of -0.0277.
In the case of `OC[C@H]1O[C@@H](n2cnc3c(NC4CCCC4)ncnc32)[C@H](O)[C@@H]1O` [N6-Cyclopentyladenosine], the cFRET/donor change worked out at 0.479.
The result for `CCCn1c(=O)[nH]c(=O)c2[nH]cnc21` [3-n-Propylxanthine] reads 0.315; that for `C1COC(NC(C2CC2)C2CC2)=N1` [Rilmenidine hemifumarate], 0.52.
In the case of `Cn1c(=O)[nH]c2ncn(C)c2c1=O` [1,7-Dimethylxanthine], the cFRET/donor change stood at 0.461.
For the molecule `Fc1ccc(CN(C2=NCCN2)c2c(Cl)cccc2Cl)cc1` [IMID-4F hydrochloride], the cFRET/donor change was 0.313.
Take `Cc1nn(-c2ccccc2)c(C)c1C=NN1CCN(Cc2ccccc2)CC1`: the cFRET/donor change is 0.373.
In turn, `Oc1cc2c(c(Cl)c1O)CCNCC2c1ccccc1` (racemic) [(±)-6-Chloro-PB hydrobromide] showed a cFRET/donor change of 2.85.
Regarding `C[C@H]1c2cccc(O)c2C(=O)C2=C(O)[C@]3(O)C(=O)C(C(N)=O)=C(O)[C@@H](N(C)C)[C@@H]3[C@@H](O)[C@@H]21` [Doxycycline hydrochloride], the cFRET/donor change is -0.16.
As for `C[C@](N)(Cc1ccc(O)c(O)c1)C(=O)O` [L-alpha-Methyl DOPA], the cFRET/donor change stood at 0.341.
`c1cnc(N2CCN(Cc3ccc4c(c3)OCO4)CC2)nc1` [Piribedil maleate] had a cFRET/donor change of 0.16.
As for `O=C(O)CNC(=O)C(CS)Cc1ccccc1` (racemic) [DL-Thiorphan], the cFRET/donor change is -0.109.
With `OC[C@H]1NC[C@H](O)[C@@H](O)[C@@H]1O` [1-Deoxynojirimycin hydrochloride], the cFRET/donor change was found to be 0.114.
For `Cc1cc(Nc2ncc3cc(-c4c(Cl)cccc4Cl)c(=O)n(C)c3n2)ccc1F`, the cFRET/donor change was -0.253.
Molecule `CN[C@H](CC(=O)O)C(=O)O` [N-Methyl-D-aspartic acid] displayed a cFRET/donor change of 0.156.
`Cn1c(=O)c2[nH]c(-c3ccccc3)nc2n(C)c1=O` [1,3-Dimethyl-8-phenylxanthine]: the cFRET/donor change was -1.5.
For `CN1CCC[C@@H]1Cc1c[nH]c2ccc(CCS(=O)(=O)c3ccccc3)cc12` [Eletriptan hydrobromide], the cFRET/donor change was found to be 0.314.
In the case of `CC(C)[N+](C)(CCOC(=O)C1c2ccccc2Oc2ccccc21)C(C)C` [Propantheline bromide], the cFRET/donor change came out at 0.495.
Turning to `O=C(O)Cc1c[nH]c2ccc(O)cc12` [5-Hydroxyindolacetic acid], the cFRET/donor change is -0.112.
`CCN(c1nc(N)c(C(=O)NC(=N)N)nc1Cl)C(C)C` [5-(N-Ethyl-N-isopropyl)amiloride] returned a cFRET/donor change of -1.88.
Molecule `Cn1cnc2c1c(=O)[nH]c(=O)n2C` [Theobromine] yielded a cFRET/donor change of 0.196.
The same measure for `CN(C)C/C=C(/c1ccc(Br)cc1)c1cccnc1` [Zimelidine dihydrochloride]: 0.443; for `NCCCNCCCCNCCCN` [Spermine tetrahydrochloride]: 0.457; for `CCN(CC)CCNC(=O)c1cc(Cl)c(N)cc1OC` [Metoclopramide hydrochloride]: 0.00585.
The result for `CC(=O)N[C@@H](Cc1c[nH]c2ccccc12)C(=O)OCc1cc(C(F)(F)F)cc(C(F)(F)F)c1` reads 0.476; that for `NC/C=C/C(=O)O` [(E)-4-amino-2-butenoic acid], 0.284; that for `CCN(CC)CCOC(=O)c1cc(Cl)c(N)cc1OC` [SDZ-205,557 hydrochloride], 0.162.
Consider `Oc1ccc(/C=C/c2cc(O)cc(O)c2)cc1` [Resveratrol], for which the cFRET/donor change worked out at 0.391.
The result for `COc1ccc(/C=C/C(=O)Nc2ccccc2C(=O)O)cc1OC` [Tranilast] reads -0.184.
As for `CCCc1c(-c2ccc(O)cc2)nn(-c2ccc(O)cc2)c1-c1ccc(O)cc1` [1,3,5-tris(4-hydroxyphenyl)-4-propyl-1H-pyrazole], the cFRET/donor change amounted to 0.157.
For `NC[C@@H]1O[C@H](O[C@H]2[C@@H](O)[C@H](O[C@@H]3[C@@H](O)[C@H](N)C[C@H](N)[C@H]3O[C@H]3O[C@H](CO)[C@@H](O)[C@H](O)[C@H]3N)O[C@@H]2CO)[C@H](N)[C@@H](O)[C@@H]1O` [Paromomycin sulfate], the cFRET/donor change was 0.13.
For the molecule `CC[C@]1(O)C[C@H]2CN(CCc3c([nH]c4ccccc34)[C@@](C(=O)OC)(c3cc4c(cc3OC)N(C=O)[C@H]3[C@@](O)(C(=O)OC)[C@H](OC(C)=O)[C@]5(CC)C=CCN6CC[C@]43[C@@H]65)C2)C1` [Vincristine sulfate], the cFRET/donor change was found to be 0.0308.
For the molecule `Cc1cccc(C)c1OCC(C)N` (stereo unspecified) [Mexiletene hydrochloride], the cFRET/donor change worked out at 0.157.
In turn, `COc1ccccc1N1CCN(CCCCN2C(=O)c3ccccc3C2=O)CC1` [NAN-190 hydrobromide] came in with a cFRET/donor change of -0.033.
In turn, `NC(=O)c1cn(Cc2c(F)cccc2F)nn1` [Rufinamide] showed a cFRET/donor change of 0.067.
The result for `NC(N)=NC(N)=Nc1cccc(Cl)c1` [1-(m-Chlorophenyl)-biguanide hydrochloride] reads 0.571; that for `Cc1cccc(C)c1NC(=O)C(C)N` (stereo unspecified) [Tocainide hydrochloride], 0.415.
In the case of `C=CCc1cccc(/C=N/NC(=O)CN2CCN(Cc3ccccc3)CC2)c1O`, the cFRET/donor change turned out to be 0.577.
In turn, `CC[N+](CC)(CC)CCOc1ccc(/C=C/c2ccccc2)cc1` gave a cFRET/donor change of 0.391.
In turn, `CC(C)C[C@H](NC(=O)[C@H](O)[C@H](N)Cc1ccccc1)C(=O)O` [Epibestatin hydrochloride] yielded a cFRET/donor change of 0.188.
`CCCCCCCCCCCCCCCC(=O)OC(CC(=O)O)C[N+](C)(C)C` (racemic) [Palmitoyl-DL-Carnitine chloride] came in with a cFRET/donor change of 0.347.
On to `COc1ccc2c(c1OC)C(=O)O[C@@H]2[C@H]1c2c(cc3c(c2OC)OCO3)CCN1C` [Noscapine hydrchloride], for which the cFRET/donor change turned out to be 0.531.
For the molecule `O=C(C1CCCCC1)N1CC(=O)N2CCc3ccccc3C2C1` (stereo unspecified) [Praziquantel], the cFRET/donor change is 0.342.
`C(=C\c1ccccc1)/CN1CCN(C(c2ccccc2)c2ccccc2)CC1` [Cinnarizine] displayed a cFRET/donor change of 0.218.
Regarding `COc1ccc2c(c1)c(CC(=O)O)c(C)n2C(=O)c1ccc(Cl)cc1` [Indomethacin], the cFRET/donor change amounted to 0.495.
`O=C(O)c1cc(=O)cc(C(=O)O)[nH]1` [Chelidamic acid] returned a cFRET/donor change of 0.556.
In turn, `Cc1nc(C#Cc2cccnc2)cs1` [MTEP hydrochloride] gave a cFRET/donor change of 0.691.
Regarding `Nc1ccn([C@H]2CC[C@@H](CO)O2)c(=O)n1` [2',3'-dideoxycytidine], the cFRET/donor change was 0.352.
On to `O=C(Nc1ccccc1C(=O)NC1CCCCNC1=O)c1cc2ccccc2s1` (stereo unspecified), for which the cFRET/donor change stood at 0.384.
`CN(C)CCOC(C)(c1ccccc1)c1ccccn1` (stereo unspecified) [Doxylamine succinate] came in with a cFRET/donor change of 0.558.
In the case of `COc1cccc(-c2cc(=O)c3ccccc3o2)c1N`, the cFRET/donor change was 0.0735.
Molecule `CCCCCCCCCCCCCCC[C@H](O)[C@H](N)CO` (racemic) [DL-erythro-Dihydrosphingosine] had a cFRET/donor change of 0.48.
`O=C(CCc1ccc(O)cc1)c1c(O)cc(O)cc1O` [Phloretin]: the cFRET/donor change was found to be 0.232.
On to `CCCCCCCCCCCCCCCCCCN(CCCCCCCCCCCCCCCCCC)CCCN(CCO)CCO` [Avridine], for which the cFRET/donor change worked out at 0.401.
The result for `CN1CCN(CCCN2c3ccccc3Sc3ccc(C(F)(F)F)cc32)CC1` [Trifluoperazine dihydrochloride] reads 0.794; that for `C[N+](C)(C)CC(=O)O` [Betaine hydrochloride], -0.0834.
In turn, `OCCN(CCO)c1nc(N2CCCCC2)c2nc(N(CCO)CCO)nc(N3CCCCC3)c2n1` [Dipyridamole] yielded a cFRET/donor change of -0.8.
Regarding `CC[C@H](CO)Nc1nc(NCc2ccccc2)c2ncn(C(C)C)c2n1` [Roscovitine], the cFRET/donor change is -0.0126.
The same measure for `Nc1cc(Cl)c(NC2=NCCN2)c(Cl)c1` [p-Aminoclonidine hydrochloride]: -0.0499; for `Nc1nc(Cl)nc2c1ncn2[C@@H]1O[C@H](CO)[C@@H](O)[C@H]1O` [2-Chloroadenosine]: 0.284.
In turn, `NO` [Hydroxylamine hydrochloride] displayed a cFRET/donor change of -0.0386.
The molecule `CS(=O)(=O)c1ccc(-n2nc(C(F)(F)F)cc2-c2ccc(F)cc2)cc1` showed a cFRET/donor change of 0.187.
Molecule `Cc1ccc(=O)n(-c2ccccc2)c1` [Pirfenidone] came in with a cFRET/donor change of 0.0731.
The result for `CC(=O)/C=C1/C(=O)N(C)c2ccccc21` [Supercinnamaldehyde] reads 0.0218; that for `CN(C)C(=O)[C@H](O)[C@H](Cc1ccccc1)NC(=O)c1cc2cc(Cl)ccc2[nH]1`, 0.332; that for `N#Cc1cc2nc(O)c(O)nc2cc1[N+](=O)[O-]` [CNQX disodium], 0.332.
Molecule `N[C@@H](CS(=O)O)C(=O)O` [L-Cysteinesulfinic Acid] showed a cFRET/donor change of 0.229.
For the molecule `O=C(Nc1ccncc1)c1cc([N+](=O)[O-])ccc1Cl`, the cFRET/donor change is 0.286.
The result for `CCn1c(=O)[nH]c2cc(Cl)c(Cl)cc21` reads 0.309; that for `O=C(Nc1cc(C(F)(F)F)cc(C(F)(F)F)c1)Nc1c(Br)cc(Br)cc1-c1nn[nH]n1`, 1.37; that for `CC[C@@H]1C(=O)OC[C@@H]1Cc1cncn1C` [Pilocarpine nitrate], 0.153.
The same measure for `CC[C@@H]1C(=O)OC[C@@H]1Cc1cncn1C` [(+)-Pilocarpine hydrochloride]: 0.534.
In the case of `CN1C(=O)CC[C@H]1c1cccnc1` [(-)-Cotinine], the cFRET/donor change turned out to be 0.0254.
As for `COC1(C2=NCCN2)COc2ccccc2O1` (stereo unspecified), the cFRET/donor change was -0.111.
The molecule `OC[C@H]1O[C@@H](n2cnc3c(N[C@H]4CCC[C@@H]4O)ncnc32)[C@H](O)[C@@H]1O` gave a cFRET/donor change of 0.476.
`Nc1cc(=O)[nH]c(N)n1` [2,4-Diamino-6-pyrimidinone] had a cFRET/donor change of 0.0643.
Take `N[C@@H](Cc1c[nH]c2ccccc12)C(=O)O` [L-Tryptophan]: the cFRET/donor change was -0.0634.
The result for `Nc1ncnc2c1nc(Br)n2C1OC2COP(=O)(O)O[C@@H]2C1O` (stereo partly specified) [8-Bromo-cAMP sodium] reads -0.131.
`O=C(Nc1cccc(C(=O)Nc2ccc(S(=O)(=O)O)c3cc(S(=O)(=O)O)cc(S(=O)(=O)O)c23)c1)Nc1cccc(C(=O)Nc2ccc(S(=O)(=O)O)c3cc(S(=O)(=O)O)cc(S(=O)(=O)O)c23)c1` showed a cFRET/donor change of -0.0398.
